In PMC6358217 one finds binding data, which are given here for one molecule.

For the test, the target named is T1, PIP5Kinase Skittles (SKTL), GFP-tagged (D. melanogaster) (UniProt Q9W2R3).
T1 sequence: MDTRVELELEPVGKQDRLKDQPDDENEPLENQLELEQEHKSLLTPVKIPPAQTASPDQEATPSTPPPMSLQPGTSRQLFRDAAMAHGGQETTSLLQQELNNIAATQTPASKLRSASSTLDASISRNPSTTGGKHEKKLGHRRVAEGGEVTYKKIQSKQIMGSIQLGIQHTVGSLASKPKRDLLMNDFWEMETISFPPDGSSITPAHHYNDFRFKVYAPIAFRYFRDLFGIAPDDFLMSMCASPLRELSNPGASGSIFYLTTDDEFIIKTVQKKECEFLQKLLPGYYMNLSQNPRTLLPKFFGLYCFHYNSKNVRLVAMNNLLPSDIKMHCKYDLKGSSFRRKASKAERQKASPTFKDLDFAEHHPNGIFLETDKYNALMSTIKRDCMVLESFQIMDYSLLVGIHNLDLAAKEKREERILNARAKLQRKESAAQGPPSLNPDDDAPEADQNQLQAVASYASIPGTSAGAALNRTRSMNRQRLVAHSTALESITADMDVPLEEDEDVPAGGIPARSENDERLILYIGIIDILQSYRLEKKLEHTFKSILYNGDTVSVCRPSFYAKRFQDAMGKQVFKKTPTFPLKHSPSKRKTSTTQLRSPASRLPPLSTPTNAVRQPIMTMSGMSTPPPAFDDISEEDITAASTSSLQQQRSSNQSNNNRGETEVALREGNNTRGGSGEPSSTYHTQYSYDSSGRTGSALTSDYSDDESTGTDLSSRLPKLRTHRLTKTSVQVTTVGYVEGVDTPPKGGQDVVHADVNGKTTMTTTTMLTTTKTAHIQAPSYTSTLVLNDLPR
As to the kind of experiment: affinity purification with mass spectrometry; S2 cells transfected with SKTL-GFP vector or not (control), harvested 3 days later; immunoprecipitation by Chromotek standard procedures; trypsin digestion; LTQ Velos Orbitrap.

Results are given in words; binding and its absence hold for the method and conditions named. In cells and extracts the contact can be indirect. A yes stands for co-enrichment or nearness to the bait. Other partners may have been found. Tags and fused reporters may be left off the sequences shown.

B1: dynein light intermediate chain (DLIC), endogenous in S2 cells (protein, UniProt Q9VZ20 1-493)
chain: MAMNSGTQTNALTSSFTMKKKDAAAEKENLWSAILNEVQTQGSTKLPSNKSVLVLGDNATGKTTLIAKLQGVEDPKKGSGLEYAYIDVKDEYRDDMTRLGVWVLDGDPGHTNLLHYALNETNYAHTLVILTVSMTQPWGWLEQLNHWIKVLGQHIDSLQLDAKEKEAARQRLTTTWQSYCEVGDDLDPGSPVKRTMRNNSIDEDDLLPLTEDALITNLGLDIVVVVTKTDYMTTLEKEYEYRDEHFDFIQQWIRNFCLRHGTSLFYTSVKEDKNCDVLYKYLTHRIYGLPFRTPALVVEKDAVLIPAGWDSLKKISILYENMHGVKAENPYTDIIKSPPTRKAVSNREAEVQTEDEQAFLARQQEILKQGDQVRGESPLRSQGVGSNKSGPRTPGTTGQSSPKKIDPKLTPATPGAEGVLANFFNSLLHKKSGSPGTGGPGGAGNPAGPGRTANGTDAVMTPEKLAVRTDAAAELDRLSRSVKKEIDMSQSEC
As to B1, the binding entry is given as “binds”.
